Laboratory results taken from EP1206494B1, “COMPUTATIONAL DESIGN METHODS FOR MAKING MOLECULAR MIMETICS” (SYNT:EM S.A., priority 1999, dated 2001).
At least one peptide structure holds a part that was inferred or is arguable (an end, a ring closure or a residue). Where a SMILES comes first, the peptide text is derived from it. Bridges are numbered along the chain shown (N, C = ends). Mpa = O=C(O)CCS

Legend:
[1] = biological target: T1, human recombinant CD4 (Homo sapiens, UniProt P01730); experiment: BIAcore surface plasmon resonance kinetic analysis: binding of soluble CD4 to immobilized mimetic; settings: immobilized mimetic and soluble CD4, 25°C
T1 construct: purchased RepliGen (USA)
Procedure: The human recombinant CD4 used for the kinetic analysis and the biological assays was obtained from RepliGen (USA).
The kinetic parameters, association rate constant (ka) and dissociation rate constant (kd), were determined by surface plasmon resonance (SPR) analysis using BIACORE 2000 (Biacore AB, Uppsala, Sweden). ka and kd were determined using BIAevaluation 3.0 software (BIAcore AB). The apparent equilibrium constant KD is the ratio kd/ka. All experiments were carried out at 25°C.
The free SH group of the lysine side chain extended by a 3-mercaptopropionic acid linker of the mimetic was used to chemically immobilize molecules on a B1 sensor chip (BIAcore AB) following a standard PDEA/EDC/NHS procedure from BIAcore.
The binding kinetic of CD4 to immobilized mimetic was determined by injecting CD4 (1-20 µg/ml, 16-330 nM) in HBS buffer (running buffer) at a flow rate of 30 µl/min.

[2] = test system: irrelevant proteins: 8A6 (anti-lyphocyte MAb), 9E8 (anti-troponine i MAb), Troponin C and Thyroglobulin (Tg); experiment: BIAcore selectivity study: irrelevant proteins injected over immobilized mimetic; format: binding; settings: 8A6, 9E8, Troponin C and Tyroglobulin, each at 50 µg/ml

In the case of `CC(=O)N[C@@H](C)C(=O)N[C@@H](CCCNC(=N)N)C(=O)N[C@@H](CCCNC(=N)N)C(=O)N1CCC[C@H]1C(=O)N[C@H]1CCCCNC(=O)[C@@H]2CCCN2C(=O)CNC(=O)[C@H](Cc2ccc(O)cc2)NC(=O)[C@H](C)NC(=O)[C@H](C(C)C)NC(=O)[C@H](Cc2c[nH]c3ccccc23)NC(=O)[C@@H]2CCCN2C(=O)CNC(=O)[C@H](Cc2c[nH]c3ccccc23)NC(=O)[C@H](C(C)C)NC(=O)[C@H](CC(N)=O)NC(=O)[C@@H]2CCCN2C(=O)[C@H](Cc2c[nH]cn2)NC(=O)[C@H](CC(N)=O)NC(=O)[C@H](CCCCNC(=O)CCS)NC(=O)[C@H](C(C)C)NC(=O)[C@H](Cc2ccc(O)cc2)NC(=O)[C@@H]2CCCN2C(=O)[C@H](C)NC(=O)[C@H](CCCNC(=N)N)NC(=O)[C@H](Cc2ccc(O)cc2)NC(=O)[C@H](Cc2ccccc2)NC1=O` [Mk3Tyr-long1SH] (Ac-ARRPKFYRAPYVK(Mpa)NHPNVWGPWVAYGP; lactam 5-C), the kd [1] is reported as 0.000264 s⁻¹ and the “binding of non-relevant proteins to the immobilized mimetic” value [2] is reported as “No binding”.
